Data taken from paper PMC7404264.
These are yes or no findings as the source states them, for the method shown. In cells and extracts the contact can be indirect.

Biological target: N-terminal FLAG epitope-tagged IpLITR 1.1b (1.1b^(WT CYT)) (channel catfish (Ictalurus punctatus))
Assay: co-IP; AD293 cells co-expressing HA-2.6b^(ITAM CYT) and a FLAG-1.1b^CYT construct; receptors co-crosslinked with magnetic beads co-opsonized with α-HA mAb (0.32 μg/mL) and α-FLAG mAb (2.5 μg/mL), 8 min at 37 °C; lysis in 50 mM Tris-HCl, 150 mM NaCl, 1% Triton X-100, pH 8.0 on ice; beads isolated magnetically, washed, bound proteins immunoblotted

B1: SH2 domain-containing inositol 5′-phosphatase 2 (SHIP-2) (enzyme, UniProt O15357 1-1258)
chain: MASACGAPGPGGALGSQAPSWYHRDLSRAAAEELLARAGRDGSFLVRDSESVAGAFALCVLYQKHVHTYRILPDGEDFLAVQTSQGVPVRRFQTLGELIGLYAQPNQGLVCALLLPVEGEREPDPPDDRDASDGEDEKPPLPPRSGSTSISAPTGPSSPLPAPETPTAPAAESAPNGLSTVSHDYLKGSYGLDLEAVRGGASHLPHLTRTLATSCRRLHSEVDKVLSGLEILSKVFDQQSSPMVTRLLQQQNLPQTGEQELESLVLKLSVLKDFLSGIQKKALKALQDMSSTAPPAPQPSTRKAKTIPVQAFEVKLDVTLGDLTKIGKSQKFTLSVDVEGGRLVLLRRQRDSQEDWTTFTHDRIRQLIKSQRVQNKLGVVFEKEKDRTQRKDFIFVSARKREAFCQLLQLMKNKHSKQDEPDMISVFIGTWNMGSVPPPKNVTSWFTSKGLGKTLDEVTVTIPHDIYVFGTQENSVGDREWLDLLRGGLKELTDLDYRPIAMQSLWNIKVAVLVKPEHENRISHVSTSSVKTGIANTLGNKGAVGVSFMFNGTSFGFVNCHLTSGNEKTARRNQNYLDILRLLSLGDRQLNAFDISLRFTHLFWFGDLNYRLDMDIQEILNYISRKEFEPLLRVDQLNLEREKHKVFLRFSEEEISFPPTYRYERGSRDTYAWHKQKPTGVRTNVPSWCDRILWKSYPETHIICNSYGCTDDIVTSDHSPVFGTFEVGVTSQFISKKGLSKTSDQAYIEFESIEAIVKTASRTKFFIEFYSTCLEEYKKSFENDAQSSDNINFLKVQWSSRQLPTLKPILADIEYLQDQHLLLTVKSMDGYESYGECVVALKSMIGSTAQQFLTFLSHRGEETGNIRGSMKVRVPTERLGTRERLYEWISIDKDEAGAKSKAPSVSRGSQEPRSGSRKPAFTEASCPLSRLFEEPEKPPPTGRPPAPPRAAPREEPLTPRLKPEGAPEPEGVAAPPPKNSFNNPAYYVLEGVPHQLLPPEPPSPARAPVPSATKNKVAITVPAPQLGHHRHPRVGEGSSSDEESGGTLPPPDFPPPPLPDSAIFLPPSLDPLPGPVVRGRGGAEARGPPPPKAHPRPPLPPGPSPASTFLGEVASGDDRSCSVLQMAKTLSEVDYAPAGPARSALLPGPLELQPPRGLPSDYGRPLSFPPPRIRESIQEDLAEEAPCLQGGRASGLGEAGMSAWLRAIGLERYEEGLVHNGWDDLEFLSDITEEDLEEAGVQDPAHKRLLLDTLQLSK
**Q.** For B1, which binding is on record?
**A.** no binding
